From patent US20210008108A1 (ETABLISSEMENT FRANCAIS DU SANG, published 2021)
No constants are given. Whether binding was seen depends on the method and setting. Some binding calls cover weakened binding; strength is not graded here.

Amino acid sequences for entries named in this document (tags omitted). Residues count along the entry.
UniProt Q9NPH3, residues 21-359: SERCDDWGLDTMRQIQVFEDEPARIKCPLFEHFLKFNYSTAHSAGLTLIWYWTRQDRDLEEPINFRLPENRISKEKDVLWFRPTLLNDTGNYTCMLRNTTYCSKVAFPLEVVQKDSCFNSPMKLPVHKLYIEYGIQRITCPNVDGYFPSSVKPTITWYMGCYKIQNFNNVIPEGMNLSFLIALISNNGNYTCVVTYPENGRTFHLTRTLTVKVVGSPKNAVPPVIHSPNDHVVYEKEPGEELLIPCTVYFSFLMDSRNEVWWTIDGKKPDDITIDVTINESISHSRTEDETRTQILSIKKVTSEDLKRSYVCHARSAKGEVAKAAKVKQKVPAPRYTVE

Molecular target: recombinant IL-1RAP biotinylated protein (UniProt Q9NPH3)
Experiment: flow cytometry with biotinylated recombinant IL-1RAP on CAR-transduced cells

B1: IL-1RAP CAR (chimeric antigen receptor with the scFv of #E3C3, from pSDY-iC9-IL-1RAPCAR-dCD19) (protein, not shown: small tags and cut ends)
chain: QVQLQQPGAELMMPGASVKVSCEASGYTFTDSWMHWVKQRPGQGLEWIGAIDPSDSYTTYNQKFTGKATLSVDESSNTAYMQLSSLTSEDSAVYYCARYYSGSNYISPFPYWGQGTLVTVSAGGSGGGGSGGGGSVDMESQIQVFVFVFLWLSGVDGDIVMTQSHKFMSTSVGDRVTITCKASLDVSTAVAWYQQKPGQSPKLLIYSASYRYTGVPDRFTGSGSGTDFTFTISSVQAEDLAVYYCQQHYSPPFTFGSGTNLEIK
- binding: binds
